These compounds were tested on Human ovarian cancer cell line SKOV3 (assay: Phototoxicity in SKOV3 cells (660 nm laser or LED, AlamarBlue viability)). Conditions: calculated using phototoxicity IC90 vs dark toxicity IC10, SKOV3; phototoxicity by LED where marked *.
Format: cell-based
Excerpt: All data are shown as mean±SD (where appropriate).
Media was then replaced with fresh media containing AlamarBlue, and % viable cells remaining assessed as above. […] All measurements were made in quadruplicate.

| Compound | Therapeutic Index |
| --- | --- |
| CCC1=C(C)c2cc3[nH]c(cc4nc(c(C)c5cc(C)c(cc1n2)[nH]5)[C@@H](CCC(=O)OC)[C@@H]4C)c(C)c3CO[C@@H]1O[C@H](CO)[C@@H](O[C@H]2O[C@H](CO)[C@@H](O)[C@H](O)[C@H]2O)[C@H](O)[C@H]1O [Compound 8, phyllochlorin 13-hydroxymethyl-β-D-maltose ether methyl ester] | 11.19 |
| CCC1=C(C)c2cc3[nH]c(cc4nc(c(C)c5cc(C)c(cc1n2)[nH]5)[C@@H](CCC(=O)OC)[C@@H]4C)c(C)c3C(C)OCCOCC[n+]1ccccc1 (stereo partly drawn) [Compound 22, phyllochlorin methyl ester 2-(2-pyridiniumethoxy)ethyl ether chloride] | 557.00 |
| phyllochlorin 13-(N-(3-(3-triphenylphosphoniumpropoxy)propyl)chloride)carbamate N-methyl-N-3,6,9-trioxadecyl propylamide [Compound 44] | 98.30 |
| CCC1=C(C)c2cc3[nH]c(cc4nc(c(C)c5cc(C)c(cc1n2)[nH]5)[C@@H](CCC(=O)NCCOC)[C@@H]4C)c(C)c3COC(=O)NCCC[P+](c1ccccc1)(c1ccccc1)c1ccccc1 [Compound 52, phyllochlorin N-(2-methoxy)ethyl propylamide 13-(N-(3-triphenylphosphoniumpropyl)bromide)carbamate] | 203.85 |
| CCC1=C(C)c2cc3[nH]c(cc4nc(c(C)c5cc(C)c(cc1n2)[nH]5)[C@@H](CCC(=O)OC)[C@@H]4C)c(C)c3C(C)OCCC[n+]1ccc(C)cc1 (stereo partly drawn) [Compound 28] | 1,625.67 |
| CCC1=C(C)c2cc3[nH]c(cc4nc(c(C)c5cc(C)c(cc1n2)[nH]5)[C@@H](CCC(=O)N(C)C[C@H](O)[C@@H](O)[C@H](O)[C@H](O)CO)[C@@H]4C)c(C)c3CO[C@@H]1O[C@H](CO)[C@@H](O)[C@H](O)[C@H]1O [Compound 10, phyllochlorin N-meglumine-propylamide-13-hydroxymethyl-β-D-glucoside ether] | 3.16 |
| CCC1=C(C)c2cc3[nH]c(cc4nc(c(C)c5cc(C)c(cc1n2)[nH]5)[C@@H](CCC(=O)N(C)CCCOCCC[P+](c1ccccc1)(c1ccccc1)c1ccccc1)[C@@H]4C)c(C)c3CO [Compound 18] | 627.57 |
| CCC1=C(C)c2cc3[nH]c(cc4nc(c(C)c5cc(C)c(cc1n2)[nH]5)[C@@H](CCC(=O)OC)[C@@H]4C)c(C)c3CO[C@@H]1O[C@H](CO)[C@@H](O)[C@H](O)[C@H]1O [Compound 4, phyllochlorin 13-hydroxymethyl-β-D-glucoside ether methyl ester] | 7.83 |
| CCC1=C(C)c2cc3[nH]c(cc4nc(c(C)c5cc(C)c(cc1n2)[nH]5)[C@@H](CCC(=O)N(CCOCCOCCOC)CCOCCOCCOC)[C@@H]4C)c(C)c3CO [Compound 13, phyllochlorin 13-hydroxymethyl-N,N-bis-PEG3OMe propylamide] | 144.30 |
| CCOC(=O)CC[C@@H]1c2nc(cc3[nH]c(cc4nc(cc5[nH]c(cc5C)c2C)C(CC)=C4C)c(COC(=O)NCCC[P+](c2ccccc2)(c2ccccc2)c2ccccc2)c3C)[C@H]1C [Compound 53, phyllochlorin ethyl ester 13-(N-(3-triphenylphosphoniumpropyl)bromide)carbamate] | 2,909.09 |
| CCC1=C(C)c2cc3[nH]c(cc4nc(c(C)c5cc(C)c(cc1n2)[nH]5)[C@@H](CCCO)[C@@H]4C)c(C)c3CO [Compound 32, phyllochlorin 13-hydroxymethyl-3-hydroxypropyl] | 426.10 |
| CCC1=C(C)c2cc3[nH]c(cc4nc(c(C)c5cc(C)c(cc1n2)[nH]5)[C@@H](CCC(=O)O)[C@@H]4C)c(C)c3C(C)O (stereo partly drawn) [Compound 27, phyllochlorin 13-(ethyl-1-alcohol)] | 26.50 |

From patent US20250177533A1, “PHOTODYNAMIC THERAPY AND DIAGNOSIS” (RMW CHO Group Limited, priority 2021, published 2025)
